PubChem BioAssay AID504791, Drosophila RNAi Screening Center – 2011
The screen tested about 23,000 reagents; this is an unselected part of those that have a named target and a result. In the full data, 199 (0.86%) are marked active. 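Plate-scaled ratios behind the calls are not deposited; printed light signals are raw; many rows marked increased or decreased are still called inactive.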 Entries without a mark were called inactive. A plus sign joins genes that one reagent is predicted to hit. Not stated in the record: the direction of the score.

Screen: 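Factors in Argonaute-based small RNA production and activity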 (primary screen)
Cells: Drosophila S2-derived reporter cells
Reagents: long dsRNA against Drosophila genes, about 150-250 ng dsRNA per well (siRNA assay); about 80-120 ng (miRNA assay)
Time to read-out: about 5 days (siRNA assay); about 4 days (miRNA assay)
Conditions: copper sulfate induction of reporters: 25 µM (siRNA assay); 200 mM stated (miRNA assay), 1-2 days before reading
Detection: 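Dual luciferase assay: Renilla to firefly signal ratio in each well, scaled to the mean ratio of its plate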
Rule for the call: 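a well was a first-pass pick when its plate-scaled ratio rose above 1.5 (siRNA assay) or 1.6 (miRNA assay), or dropped below 0.6; a gene counted only if two separate dsRNAs agreed on retest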

Target gene	amplicon	stable siRNA reporter change	miRNA reporter change	stable assay Renilla, run 1 (luminescence)	stable assay firefly, run 1 (luminescence)
Cyp40 (Cyclophilin 40)	DRSC10980			7198	3.51e5
CG7551	DRSC10876			7034	3.22e5
Eip63E (Ecdysone-induced protein 63E)	DRSC08658			7027	3.20e5
Galphai (G protein alpha subunit i)	DRSC11168			9847	4.75e5
dpp (decapentaplegic)	DRSC00118			5231	5.32e5
dpp (decapentaplegic)	DRSC00121			5339	3.50e5
dpp (decapentaplegic)	DRSC00813			7472	4.08e5
Gnptab	DRSC07057			7951	3.42e5
GILT2 (Gamma-interferon-inducible lysosomal thiol reductase 2)	DRSC14196			8553	2.95e5
CG30403	DRSC03889			2800	3.13e5
CG13228	DRSC06348			6122	5.23e5
Acp26Aa (Accessory gland protein 26Aa)	DRSC01855			7486	3.53e5
D2hgdh (D-2-hydroxyglutaric acid dehydrogenase)	DRSC18577			8579	4.40e5
ng4 (new glue 4)	DRSC18805			6216	3.01e5
Femcoat	DRSC18061			4566	2.34e5
CG14321	DRSC14800			7306	4.77e5
PPP1R15 (Protein phosphatase 1 regulatory subunit 15)	DRSC04422	reporter ratio lowered past the hit cutoff (active)	reporter ratio raised past the hit cutoff	7419	2.27e6
PPP1R15 (Protein phosphatase 1 regulatory subunit 15)	DRSC26013		reporter ratio raised past the hit cutoff (active)		
Axud1 (AXIN1 up-regulated 1)	DRSC00270			8489	4.79e5
CG9147	DRSC03147			7455	3.32e5
rhea	DRSC11300			6675	4.38e5
IntS10 (Integrator 10)	DRSC08173			11934	6.48e5
Paip2 (polyA-binding protein interacting protein 2)	DRSC14504			9273	6.02e5
CG5225	DRSC15742			6759	3.82e5
Mzt1 (Mitotic spindle organizing protein 1)	DRSC07979			5975	4.94e5
RfC4 (Replication factor C subunit 4)	DRSC08691			7775	3.09e5
pncr004:X (retired record)	DRSC19295			3752	3.19e5
Pka-C1 (Protein kinase, cAMP-dependent, catalytic subunit 1)	DRSC03399			6126	6.16e5
Pka-C1 (Protein kinase, cAMP-dependent, catalytic subunit 1)	DRSC23314			5186	3.51e5
mRpL41 (mitochondrial ribosomal protein L41)	DRSC06257			5624	3.94e5
T3dh + pgc	DRSC04659			19955	1.36e6
CG6900 (retired record)	DRSC20018			5959	3.72e5
bic (bicaudal)	DRSC07584		reporter ratio raised past the hit cutoff (active)	7114	3.27e5
Cse1 (Chromosome segregation 1)	DRSC03287			38889	1.69e6
yellow-g	DRSC08575			6526	3.46e5

Copied from the listing for reference:
Target gene	amplicon	stable siRNA reporter change	miRNA reporter change	stable assay Renilla, run 1 (luminescence)	stable assay firefly, run 1 (luminescence)
dpp (decapentaplegic)	DRSC00118			5231	5.32e5
dpp (decapentaplegic)	DRSC00121			5339	3.50e5
dpp (decapentaplegic)	DRSC00813			7472	4.08e5
Gnptab	DRSC07057			7951	3.42e5
GILT2 (Gamma-interferon-inducible lysosomal thiol reductase 2)	DRSC14196			8553	2.95e5
CG30403	DRSC03889			2800	3.13e5
CG13228	DRSC06348			6122	5.23e5
Acp26Aa (Accessory gland protein 26Aa)	DRSC01855			7486	3.53e5
D2hgdh (D-2-hydroxyglutaric acid dehydrogenase)	DRSC18577			8579	4.40e5
ng4 (new glue 4)	DRSC18805			6216	3.01e5
Femcoat	DRSC18061			4566	2.34e5

Further entries follow.
Target gene	amplicon	stable siRNA reporter change	miRNA reporter change	stable assay Renilla, run 1 (luminescence)	stable assay firefly, run 1 (luminescence)
Naa15-16 (N(alpha)-acetyltransferase 15/16)	DRSC19440			5144	4.65e5
Naa15-16 (N(alpha)-acetyltransferase 15/16)	DRSC22846			4039	3.82e5
CG14515	DRSC14867			6076	5.12e5
LysP (Lysozyme P)	DRSC08676			6471	3.81e5
Hs3st-A (Heparan sulfate 3-O sulfotransferase-A)	DRSC06507			8417	2.46e5
Hs3st-A (Heparan sulfate 3-O sulfotransferase-A)	DRSC06508			6928	2.69e5
Hs3st-A (Heparan sulfate 3-O sulfotransferase-A)	DRSC06509			6652	2.99e5
CG32483	DRSC07902			4323	3.07e5
Atg7 (Autophagy-related 7)	DRSC05741			6031	4.64e5
Atg7 (Autophagy-related 7)	DRSC06937			6999	3.86e5
Zip42C.1 (Zinc/iron regulated transporter-related protein 42C.1)	DRSC05003			6718	4.05e5
CG13601	DRSC14604			10468	4.48e5
Rab30	DRSC03137			7523	3.74e5
mRpS29 (mitochondrial ribosomal protein S29)	DRSC04398			60878	6.00e5
DZIP1	DRSC14620			8795	4.61e5
CG7387	DRSC10833			7778	3.88e5
Arl6 (ADP ribosylation factor-like 6)	DRSC07031			6472	3.63e5
CG4467	DRSC15585			7794	3.79e5
Tnpo (Transportin)	DRSC11309			8178	4.61e5
TTLL6A (Tubulin tyrosine ligase-like 6A)	DRSC06618			5944	2.99e5
CG9581	DRSC20695			4271	3.91e5
CG9581	DRSC22247			9670	7.13e5
E23 (Early gene at 23)	DRSC00425	reporter ratio raised past the hit cutoff		6111	1.99e5
E23 (Early gene at 23)	DRSC00593			7038	3.68e5
IP3K1 (Inositol 1,4,5-triphosphate kinase 1)	DRSC02734			6587	4.61e5
CG42565	DRSC04154			6523	4.21e5
CG30062	DRSC21737			8523	4.47e5
Spase25 (Spase 25-subunit)	DRSC19776			8426	5.85e5
Mnt	DRSC17894			6895	3.61e5
Mnt	DRSC18480			6134	3.41e5
CG30058 + CG34235 + CG34312	DRSC05401			6526	4.25e5
PQBP1 (Poly-glutamine tract binding protein 1)	DRSC14393			11035	4.50e5
Hsp60D (Heat shock protein 60D)	DRSC02543			7650	4.16e5
CG9825	DRSC04569			6611	3.95e5
CG6225	DRSC15996			6411	3.74e5
CG13560	DRSC04198			5939	3.72e5
Ect3 (Ectoderm-expressed 3)	DRSC15462			7391	5.59e5
CG34006 (retired record)	DRSC13817			7695	6.14e5
conu (conundrum)	DRSC07810			6435	4.56e5
CG5160	DRSC02821			6416	3.62e5
Hira	DRSC18672			5778	3.24e5
CG12289	DRSC09874			6171	3.52e5
CG6180	DRSC02937			12737	4.70e5
CG4362	DRSC15567			8565	5.12e5
janB (janus B)	DRSC16973			5987	4.79e5
AANATL5 (Arylalkylamine N-acetyltransferase-like 5)	DRSC05994			6591	3.84e5
CG13331	DRSC06366			6931	3.68e5
rho-5 (rhomboid-5)	DRSC02847			3867	3.95e5
